# In the supplement of paper PMC10849652:
# Protein sequences, listed by entry. Tags and fused reporters are not part of them. Lines headed by an entry give the natural chain unless they say otherwise; changes in a name come on top.
# UniProt Q9UKY7: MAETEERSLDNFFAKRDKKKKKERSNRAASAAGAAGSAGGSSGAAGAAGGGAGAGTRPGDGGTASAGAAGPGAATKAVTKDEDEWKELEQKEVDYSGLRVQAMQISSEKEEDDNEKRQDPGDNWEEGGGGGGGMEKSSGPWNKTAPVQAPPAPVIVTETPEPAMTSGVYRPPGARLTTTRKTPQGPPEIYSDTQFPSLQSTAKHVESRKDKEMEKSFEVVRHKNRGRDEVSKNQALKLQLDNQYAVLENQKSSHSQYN
# UniProt Q9Y281, whole entry, looked up: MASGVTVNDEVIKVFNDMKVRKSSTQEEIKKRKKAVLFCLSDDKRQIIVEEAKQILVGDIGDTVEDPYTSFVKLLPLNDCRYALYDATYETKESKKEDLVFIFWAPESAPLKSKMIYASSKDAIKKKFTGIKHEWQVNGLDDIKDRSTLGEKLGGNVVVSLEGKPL
# UniProt Q69YH5: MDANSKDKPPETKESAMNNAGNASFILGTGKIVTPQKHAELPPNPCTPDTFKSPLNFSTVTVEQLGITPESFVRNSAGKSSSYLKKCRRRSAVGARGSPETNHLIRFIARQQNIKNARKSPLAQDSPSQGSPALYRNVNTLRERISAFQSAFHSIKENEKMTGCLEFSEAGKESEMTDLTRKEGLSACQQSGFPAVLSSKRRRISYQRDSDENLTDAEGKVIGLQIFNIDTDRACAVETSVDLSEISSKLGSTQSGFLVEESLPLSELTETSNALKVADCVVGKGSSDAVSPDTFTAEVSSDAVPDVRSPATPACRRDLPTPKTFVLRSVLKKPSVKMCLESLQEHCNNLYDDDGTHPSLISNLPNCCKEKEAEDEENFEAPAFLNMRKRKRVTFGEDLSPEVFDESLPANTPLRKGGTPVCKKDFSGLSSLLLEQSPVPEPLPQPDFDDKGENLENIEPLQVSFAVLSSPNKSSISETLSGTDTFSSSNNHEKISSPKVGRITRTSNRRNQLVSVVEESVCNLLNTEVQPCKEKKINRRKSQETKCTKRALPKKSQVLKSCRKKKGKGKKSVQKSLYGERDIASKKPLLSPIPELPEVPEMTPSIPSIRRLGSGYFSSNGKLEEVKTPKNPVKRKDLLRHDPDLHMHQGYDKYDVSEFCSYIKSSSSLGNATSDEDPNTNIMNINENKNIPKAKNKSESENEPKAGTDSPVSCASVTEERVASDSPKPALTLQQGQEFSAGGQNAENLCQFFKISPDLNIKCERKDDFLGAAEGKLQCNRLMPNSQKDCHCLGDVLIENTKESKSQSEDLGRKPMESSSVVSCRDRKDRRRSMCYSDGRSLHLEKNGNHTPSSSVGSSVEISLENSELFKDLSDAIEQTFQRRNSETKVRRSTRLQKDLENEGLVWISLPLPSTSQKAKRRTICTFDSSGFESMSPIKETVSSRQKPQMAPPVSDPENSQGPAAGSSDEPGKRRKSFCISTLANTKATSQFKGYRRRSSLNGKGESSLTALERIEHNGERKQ
# UniProt O75419: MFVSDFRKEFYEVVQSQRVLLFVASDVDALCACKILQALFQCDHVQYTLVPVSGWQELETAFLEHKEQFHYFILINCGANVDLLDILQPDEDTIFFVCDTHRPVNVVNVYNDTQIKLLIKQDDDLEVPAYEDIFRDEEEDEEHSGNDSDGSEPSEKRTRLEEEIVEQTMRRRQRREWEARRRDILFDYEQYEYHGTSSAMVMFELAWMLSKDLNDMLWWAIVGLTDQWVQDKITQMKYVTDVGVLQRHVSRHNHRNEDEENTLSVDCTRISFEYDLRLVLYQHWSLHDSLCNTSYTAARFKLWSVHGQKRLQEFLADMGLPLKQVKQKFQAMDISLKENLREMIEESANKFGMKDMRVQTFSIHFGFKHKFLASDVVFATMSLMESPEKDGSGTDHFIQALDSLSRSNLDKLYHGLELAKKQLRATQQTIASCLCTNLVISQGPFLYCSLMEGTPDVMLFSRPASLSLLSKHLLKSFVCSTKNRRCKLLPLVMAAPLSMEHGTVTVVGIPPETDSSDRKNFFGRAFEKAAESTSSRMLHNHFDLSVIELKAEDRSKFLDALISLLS
# UniProt Q86X02: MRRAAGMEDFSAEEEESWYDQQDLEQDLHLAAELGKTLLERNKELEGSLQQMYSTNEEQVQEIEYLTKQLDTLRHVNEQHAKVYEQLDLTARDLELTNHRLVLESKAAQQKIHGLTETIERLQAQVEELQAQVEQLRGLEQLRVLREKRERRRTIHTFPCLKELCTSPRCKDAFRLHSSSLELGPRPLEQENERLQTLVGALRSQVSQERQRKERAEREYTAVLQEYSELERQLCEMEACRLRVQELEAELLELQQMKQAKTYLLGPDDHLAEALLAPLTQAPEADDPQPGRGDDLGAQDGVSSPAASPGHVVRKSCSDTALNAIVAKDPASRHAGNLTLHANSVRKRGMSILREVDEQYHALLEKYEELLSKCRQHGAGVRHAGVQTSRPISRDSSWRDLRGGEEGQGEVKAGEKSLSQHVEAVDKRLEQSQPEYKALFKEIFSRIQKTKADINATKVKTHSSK
# UniProt Q5SW79: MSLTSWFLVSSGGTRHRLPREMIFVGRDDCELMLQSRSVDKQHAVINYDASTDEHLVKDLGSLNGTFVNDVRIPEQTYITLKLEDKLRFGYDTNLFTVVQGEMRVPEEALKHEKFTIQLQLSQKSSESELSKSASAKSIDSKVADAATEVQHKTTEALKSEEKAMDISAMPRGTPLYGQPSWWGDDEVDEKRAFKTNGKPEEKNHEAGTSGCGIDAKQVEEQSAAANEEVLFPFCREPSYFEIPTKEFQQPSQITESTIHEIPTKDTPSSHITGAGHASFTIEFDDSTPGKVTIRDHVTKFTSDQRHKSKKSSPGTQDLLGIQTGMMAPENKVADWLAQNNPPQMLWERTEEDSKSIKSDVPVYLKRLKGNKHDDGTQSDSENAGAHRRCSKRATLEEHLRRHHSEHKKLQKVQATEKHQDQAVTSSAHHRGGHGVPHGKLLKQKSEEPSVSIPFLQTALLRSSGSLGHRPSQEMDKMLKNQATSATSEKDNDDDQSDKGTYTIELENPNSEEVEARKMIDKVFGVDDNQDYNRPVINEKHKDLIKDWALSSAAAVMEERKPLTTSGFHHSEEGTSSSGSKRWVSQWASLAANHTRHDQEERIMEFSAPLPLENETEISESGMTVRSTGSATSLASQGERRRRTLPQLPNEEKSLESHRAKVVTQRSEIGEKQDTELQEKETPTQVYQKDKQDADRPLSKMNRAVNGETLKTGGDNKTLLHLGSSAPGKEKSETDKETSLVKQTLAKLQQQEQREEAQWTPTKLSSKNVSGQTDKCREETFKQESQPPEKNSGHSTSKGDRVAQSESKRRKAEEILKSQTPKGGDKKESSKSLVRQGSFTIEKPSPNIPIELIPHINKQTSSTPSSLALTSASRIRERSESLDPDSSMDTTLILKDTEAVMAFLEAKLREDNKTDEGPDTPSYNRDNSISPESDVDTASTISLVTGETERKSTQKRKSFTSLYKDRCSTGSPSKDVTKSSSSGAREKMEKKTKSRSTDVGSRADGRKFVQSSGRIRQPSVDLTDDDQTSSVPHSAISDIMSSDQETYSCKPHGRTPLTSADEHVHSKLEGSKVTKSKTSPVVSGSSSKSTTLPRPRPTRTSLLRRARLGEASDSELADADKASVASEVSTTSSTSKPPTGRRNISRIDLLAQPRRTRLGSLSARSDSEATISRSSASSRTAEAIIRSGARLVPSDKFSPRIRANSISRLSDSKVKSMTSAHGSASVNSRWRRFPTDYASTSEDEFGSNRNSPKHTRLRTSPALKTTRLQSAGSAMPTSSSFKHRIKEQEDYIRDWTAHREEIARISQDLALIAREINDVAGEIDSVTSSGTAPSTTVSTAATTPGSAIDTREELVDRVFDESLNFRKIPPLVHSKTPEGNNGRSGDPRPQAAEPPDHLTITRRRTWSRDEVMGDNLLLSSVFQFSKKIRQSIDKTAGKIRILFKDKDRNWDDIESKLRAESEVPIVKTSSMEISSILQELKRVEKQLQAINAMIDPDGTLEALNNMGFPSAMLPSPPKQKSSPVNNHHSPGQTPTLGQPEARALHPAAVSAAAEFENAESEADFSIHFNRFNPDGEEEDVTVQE
# UniProt Q6IPU0: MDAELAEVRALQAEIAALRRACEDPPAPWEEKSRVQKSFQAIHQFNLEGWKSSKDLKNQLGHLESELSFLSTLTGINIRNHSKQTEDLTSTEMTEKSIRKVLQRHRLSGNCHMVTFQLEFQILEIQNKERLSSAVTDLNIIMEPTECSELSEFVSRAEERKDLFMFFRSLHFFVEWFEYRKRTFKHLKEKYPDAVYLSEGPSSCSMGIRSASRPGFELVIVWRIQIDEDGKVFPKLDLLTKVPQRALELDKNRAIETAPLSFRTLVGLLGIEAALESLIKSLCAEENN
# UniProt P50750, whole entry, looked up: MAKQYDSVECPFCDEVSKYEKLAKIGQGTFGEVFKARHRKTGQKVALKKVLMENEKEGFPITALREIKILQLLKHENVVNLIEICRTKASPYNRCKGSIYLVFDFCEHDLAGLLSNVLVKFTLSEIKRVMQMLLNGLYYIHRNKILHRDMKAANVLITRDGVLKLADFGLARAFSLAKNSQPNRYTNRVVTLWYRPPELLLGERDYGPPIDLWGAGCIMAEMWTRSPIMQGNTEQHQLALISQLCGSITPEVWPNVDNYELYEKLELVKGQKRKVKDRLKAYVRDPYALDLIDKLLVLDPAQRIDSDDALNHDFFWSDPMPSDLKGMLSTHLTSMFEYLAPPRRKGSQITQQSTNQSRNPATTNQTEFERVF
# UniProt Q9Y232: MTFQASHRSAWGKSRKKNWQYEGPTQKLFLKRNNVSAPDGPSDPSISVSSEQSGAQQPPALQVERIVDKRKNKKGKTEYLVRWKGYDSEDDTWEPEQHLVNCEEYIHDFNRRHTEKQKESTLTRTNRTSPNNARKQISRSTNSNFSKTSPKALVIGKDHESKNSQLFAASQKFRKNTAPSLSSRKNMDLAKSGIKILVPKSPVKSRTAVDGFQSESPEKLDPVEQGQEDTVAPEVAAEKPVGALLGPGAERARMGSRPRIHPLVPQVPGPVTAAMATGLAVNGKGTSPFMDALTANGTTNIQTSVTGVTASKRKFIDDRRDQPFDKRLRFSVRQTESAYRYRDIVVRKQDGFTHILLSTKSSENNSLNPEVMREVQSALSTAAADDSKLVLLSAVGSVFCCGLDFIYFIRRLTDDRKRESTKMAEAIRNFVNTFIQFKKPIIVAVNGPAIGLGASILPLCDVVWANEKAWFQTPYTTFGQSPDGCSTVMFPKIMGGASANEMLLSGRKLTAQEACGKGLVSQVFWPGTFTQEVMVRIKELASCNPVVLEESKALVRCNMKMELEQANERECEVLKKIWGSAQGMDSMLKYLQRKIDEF
# UniProt P27701: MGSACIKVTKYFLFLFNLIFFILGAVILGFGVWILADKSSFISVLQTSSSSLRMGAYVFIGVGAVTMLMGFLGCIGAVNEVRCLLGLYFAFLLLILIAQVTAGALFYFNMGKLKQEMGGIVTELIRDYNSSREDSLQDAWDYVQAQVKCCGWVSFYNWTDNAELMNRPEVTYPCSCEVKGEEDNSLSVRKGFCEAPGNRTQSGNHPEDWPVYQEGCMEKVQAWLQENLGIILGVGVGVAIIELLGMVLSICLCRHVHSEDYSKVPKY
# UniProt Q9UQ88: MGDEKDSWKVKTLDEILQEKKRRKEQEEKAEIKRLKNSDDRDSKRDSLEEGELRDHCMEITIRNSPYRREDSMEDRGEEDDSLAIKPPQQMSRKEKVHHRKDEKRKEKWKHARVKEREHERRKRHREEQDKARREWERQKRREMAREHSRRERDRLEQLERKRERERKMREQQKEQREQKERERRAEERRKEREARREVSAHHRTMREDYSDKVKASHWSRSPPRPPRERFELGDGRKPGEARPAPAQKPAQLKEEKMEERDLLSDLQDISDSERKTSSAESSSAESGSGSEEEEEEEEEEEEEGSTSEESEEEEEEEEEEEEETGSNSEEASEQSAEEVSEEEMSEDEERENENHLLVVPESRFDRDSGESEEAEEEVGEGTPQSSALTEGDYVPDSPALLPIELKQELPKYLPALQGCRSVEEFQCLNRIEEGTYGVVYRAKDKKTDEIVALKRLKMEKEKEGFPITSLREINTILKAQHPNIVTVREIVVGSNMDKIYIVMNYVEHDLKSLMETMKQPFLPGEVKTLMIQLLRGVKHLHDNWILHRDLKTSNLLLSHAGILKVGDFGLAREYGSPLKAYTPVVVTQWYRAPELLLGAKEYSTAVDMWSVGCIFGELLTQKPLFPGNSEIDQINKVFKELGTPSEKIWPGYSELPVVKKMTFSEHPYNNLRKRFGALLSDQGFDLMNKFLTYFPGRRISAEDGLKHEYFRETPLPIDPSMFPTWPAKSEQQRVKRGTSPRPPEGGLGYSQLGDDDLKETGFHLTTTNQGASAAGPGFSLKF
# The other results are listed elsewhere or left out.
# Columns and labels:
# Test in all cases: log2 fold change, soluble protein after heating vs DMSO (PISA); higher = thermal stabilisation; K562 lysate, 10 uM; active = over 0.2 and 3.5 SD of the protein, either way, in both replicates (recomputed)
# nilotinib = compound: Cc1cn(-c2cc(NC(=O)c3ccc(C)c(Nc4nccc(-c5cccnc5)n4)c3)cc(C(F)(F)F)c2)cn1 [nilotinib]
# In short: (§1)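 The values are log-two fold changes in thermal stability compared with solvent controls and come from duplicates. They were obtained by TMTpro 16plex LC-MS/MS, with channel sums equalised, on the supernatant after 21,000xg for 90 min. That supernatant came from crude K562 extract at 1 mg/mL protein treated with 10 μM compound for 30 min, heated for 3 min across 48°C-58°C, pooled and brought to 0.5% NP-40 at 4°C.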
# [1] = compound: Cc1nc(Nc2n[nH]c3c2CN(C(=O)N[C@H](CN(C)C)c2ccccc2)C3(C)C)c2sccc2n1
# In short: as §1
# dasatinib = compound: Cc1nc(Nc2ncc(C(=O)Nc3c(C)cccc3Cl)s2)cc(N2CCN(CCO)CC2)n1 [dasatinib]
# In short: as §1
# [2] = compound: Cc1ncc(-c2ccnc(Nc3ccc(S(C)(=O)=O)cc3)n2)n1C(C)C
# In short: as §1
# [3] = compound: Cn1cc(-c2ccc3c(c2)CCN3C(=O)Cc2cccc(C(F)(F)F)c2)c2c(N)ncnc21
# In short: as §1
# quisinostat = compound: Cn1cc(CNCC2CCN(c3ncc(C(=O)NO)cn3)CC2)c2ccccc21 [quisinostat]
# In short: as §1
# tipifarnib = compound: Cn1cncc1[C@@](N)(c1ccc(Cl)cc1)c1ccc2c(c1)c(-c1cccc(Cl)c1)cc(=O)n2C [tipifarnib]
# In short: as §1
# [4] = compound: NC(=O)Nc1cc(-c2cccc(F)c2)sc1C(=O)N[C@H]1CCCNC1
# In short: as §1
# [5] = compound: NC(=O)c1cnc(N[C@@H]2CCCC[C@@H]2N)nc1Nc1cccc(-n2nccn2)c1
# In short: as §1
# [6] = compound: NC1(c2ccc(-c3nc4ccn5c(=O)[nH]nc5c4cc3-c3ccccc3)cc2)CCC1
# In short: as §1
# [7] = compound: NCC(=O)Nc1ccc(-n2nc(C(F)(F)F)cc2-c2ccc3c(ccc4ccccc43)c2)cc1
# In short: as §1
# vorinostat = compound: O=C(CCCCCCC(=O)Nc1ccccc1)NO [vorinostat]
# In short: as §1
# silmitasertib = compound: O=C(O)c1ccc2c(c1)nc(Nc1cccc(Cl)c1)c1ccncc12 [silmitasertib]
# In short: as §1
# [8] = compound: O=C1NC(=O)C(c2cnc3ccccn23)=C1c1cn2c3c(cc(F)cc13)CN(C(=O)N1CCCCC1)CC2
# In short: as §1
# entospletinib = compound: c1cn2cc(-c3ccc4cn[nH]c4c3)nc(Nc3ccc(N4CCOCC4)cc3)c2n1 [entospletinib]
# In short: as §1
Target,log2 fold change (nilotinib),log2 fold change [1],log2 fold change (dasatinib),log2 fold change [2],log2 fold change [3],log2 fold change (quisinostat),log2 fold change (tipifarnib),log2 fold change [4],log2 fold change [5],log2 fold change [6],log2 fold change [7],log2 fold change (vorinostat),log2 fold change (silmitasertib),log2 fold change [8],log2 fold change (entospletinib)
CDV3 (UniProt Q9UKY7),inactive: -0.004,inactive: 0.016,inactive: -0.008,inactive: 0.014,inactive: -0.034,inactive: 0.025,inactive: 0.055,inactive: -0.016,inactive: -0.032,inactive: 0.022,inactive: -0.051,inactive: 0.122,inactive: -0.034,inactive: 0.001,inactive: 0.039
CFL2 (UniProt Q9Y281),inactive: -0.034,inactive: 0.034,inactive: 0.061,inactive: -0.01,inactive: 0.017,inactive: -0.066,inactive: -0.088,inactive: 0.015,inactive: 0.02,inactive: -0.114,inactive: 0.052,inactive: 0.089,inactive: -0.014,inactive: -0.048,inactive: -0.029
CDCA2 (UniProt Q69YH5),inactive: 0.076,inactive: -0.09,inactive: -0.009,inactive: 0.018,inactive: -0.065,inactive: 0.012,inactive: -0.14,inactive: -0.002,inactive: 0.048,inactive: -0.183,inactive: 0.04,inactive: 0.1,inactive: -0.055,inactive: 0.032,inactive: 0.012
CDC45 isoform 3 (UniProt O75419),inactive: -0.022,inactive: 0.013,inactive: -0.044,inactive: -0.003,inactive: 0.038,inactive: 0.015,inactive: -0.022,inactive: 0.047,inactive: 0.003,inactive: -0.058,inactive: -0.021,active: -0.487,inactive: 0.012,inactive: 0.015,inactive: 0.03
CDR2L (UniProt Q86X02),inactive: -0.056,inactive: -0.123,inactive: 0.047,inactive: 0.048,inactive: -0.031,inactive: -0.054,inactive: -0.005,inactive: -0.009,inactive: 0.013,inactive: -0.044,inactive: 0.094,inactive: -0.01,inactive: 0.038,inactive: -0.035,inactive: 0.004
CDC42BPB (UniProt Q9Y5S2),inactive: -0.009,inactive: -0.007,inactive: -0.154,inactive: -0.016,inactive: -0.037,inactive: -0.227,inactive: 0.007,inactive: -0.028,inactive: 0.02,inactive: -0.179,inactive: 0.025,inactive: -0.125,inactive: 0.044,inactive: 0.1,inactive: 0.044
CEP170 (UniProt Q5SW79),inactive: -0.021,inactive: -0.022,inactive: -0.007,inactive: -0.043,inactive: 0.022,inactive: -0.014,inactive: 0.017,inactive: -0.081,inactive: -0.005,inactive: 0.022,inactive: 0.051,inactive: -0.018,inactive: -0.088,inactive: -0.035,inactive: -0.126
CEP135 (UniProt Q66GS9),inactive: -0.015,inactive: 0.067,inactive: -0.057,inactive: -0.008,inactive: 0.01,inactive: -0.097,inactive: -0.02,inactive: 0.052,inactive: -0.022,inactive: -0.031,inactive: -0.029,inactive: -0.059,inactive: -0.023,inactive: 0.049,inactive: -0.039
CENPP (UniProt Q6IPU0),inactive: 0.085,inactive: 0.269,inactive: 0.022,inactive: 0.008,inactive: 0.277,inactive: 0.002,inactive: 0.104,inactive: 0.061,inactive: -0.095,inactive: 0.086,inactive: 0.034,inactive: 0.062,inactive: 0.02,inactive: -0.015,inactive: 0.006
CDCA3 (UniProt Q99618),inactive: 0.014,inactive: -0.069,inactive: -0.017,inactive: 0.016,inactive: -0.035,inactive: 0.003,inactive: 0.027,inactive: 0.004,inactive: 0.004,inactive: 0.009,inactive: 0.102,inactive: 0.136,inactive: 0,inactive: -0.025,inactive: -0.039
CDK9 isoform 2 (UniProt P50750),inactive: -0.035,inactive: 0.255,inactive: 0.003,active: 0.403,inactive: -0.007,inactive: -0.028,inactive: -0.016,inactive: 0.009,inactive: 0.078,inactive: -0.04,inactive: 0.081,inactive: -0.198,inactive: 0.164,inactive: 0.402,inactive: 0.038
CDC42BPA isoform 6 (UniProt Q5VT25),inactive: -0.01,inactive: 0.003,inactive: 0.012,inactive: 0.013,inactive: 0.048,inactive: 0.025,inactive: 0,inactive: 0.004,inactive: -0.002,inactive: 0.024,inactive: -0.008,active: -0.224,inactive: 0.018,inactive: 0.001,inactive: 0
CDYL (UniProt Q9Y232),inactive: -0.002,inactive: -0.059,inactive: 0.02,inactive: -0.037,inactive: 0.04,inactive: -0.1,inactive: 0.071,inactive: -0.01,inactive: 0.036,inactive: -0.028,inactive: 0.019,inactive: 0.022,inactive: 0.012,inactive: 0.018,inactive: 0.022
CDK17 isoform 2 (UniProt Q00537),inactive: 0.061,inactive: 0.117,inactive: -0.068,inactive: 0.096,inactive: 0.011,inactive: -0.069,inactive: -0.423,inactive: -0.057,,inactive: 0.068,inactive: 0.01,inactive: 0.174,active: 0.565,inactive: 0.103,inactive: -0.162
CD82 (UniProt P27701),inactive: 0.125,inactive: 0.074,,inactive: -0.039,,,inactive: 0.16,,inactive: 0.074,inactive: -0.076,inactive: 0.169,inactive: 0.27,inactive: 0.097,,
CDK11A (UniProt Q9UQ88),inactive: -0.007,inactive: 0.053,inactive: -0.016,inactive: 0.085,inactive: -0.001,inactive: -0.031,inactive: -0.029,inactive: 0.035,inactive: -0.029,inactive: -0.034,,inactive: -0.329,inactive: 0.049,inactive: -0.012,

# Reformatted bar-delimited: part of the list above.
Target | log2 fold change (nilotinib) | log2 fold change [1] | log2 fold change (dasatinib) | log2 fold change [2] | log2 fold change [3] | log2 fold change (quisinostat) | log2 fold change (tipifarnib) | log2 fold change [4] | log2 fold change [5] | log2 fold change [6] | log2 fold change [7] | log2 fold change (vorinostat) | log2 fold change (silmitasertib) | log2 fold change [8] | log2 fold change (entospletinib)
CDCA2 (UniProt Q69YH5) | inactive: 0.076 | inactive: -0.09 | inactive: -0.009 | inactive: 0.018 | inactive: -0.065 | inactive: 0.012 | inactive: -0.14 | inactive: -0.002 | inactive: 0.048 | inactive: -0.183 | inactive: 0.04 | inactive: 0.1 | inactive: -0.055 | inactive: 0.032 | inactive: 0.012
CDC45 isoform 3 (UniProt O75419) | inactive: -0.022 | inactive: 0.013 | inactive: -0.044 | inactive: -0.003 | inactive: 0.038 | inactive: 0.015 | inactive: -0.022 | inactive: 0.047 | inactive: 0.003 | inactive: -0.058 | inactive: -0.021 | active: -0.487 | inactive: 0.012 | inactive: 0.015 | inactive: 0.03
CDR2L (UniProt Q86X02) | inactive: -0.056 | inactive: -0.123 | inactive: 0.047 | inactive: 0.048 | inactive: -0.031 | inactive: -0.054 | inactive: -0.005 | inactive: -0.009 | inactive: 0.013 | inactive: -0.044 | inactive: 0.094 | inactive: -0.01 | inactive: 0.038 | inactive: -0.035 | inactive: 0.004
